Test results taken from publication PMC7005036.

Amino acid sequences for entries named in this document (tags omitted). A change or cut given only in a name is not applied to a line headed by its entry.
UniProt Q9M9X9: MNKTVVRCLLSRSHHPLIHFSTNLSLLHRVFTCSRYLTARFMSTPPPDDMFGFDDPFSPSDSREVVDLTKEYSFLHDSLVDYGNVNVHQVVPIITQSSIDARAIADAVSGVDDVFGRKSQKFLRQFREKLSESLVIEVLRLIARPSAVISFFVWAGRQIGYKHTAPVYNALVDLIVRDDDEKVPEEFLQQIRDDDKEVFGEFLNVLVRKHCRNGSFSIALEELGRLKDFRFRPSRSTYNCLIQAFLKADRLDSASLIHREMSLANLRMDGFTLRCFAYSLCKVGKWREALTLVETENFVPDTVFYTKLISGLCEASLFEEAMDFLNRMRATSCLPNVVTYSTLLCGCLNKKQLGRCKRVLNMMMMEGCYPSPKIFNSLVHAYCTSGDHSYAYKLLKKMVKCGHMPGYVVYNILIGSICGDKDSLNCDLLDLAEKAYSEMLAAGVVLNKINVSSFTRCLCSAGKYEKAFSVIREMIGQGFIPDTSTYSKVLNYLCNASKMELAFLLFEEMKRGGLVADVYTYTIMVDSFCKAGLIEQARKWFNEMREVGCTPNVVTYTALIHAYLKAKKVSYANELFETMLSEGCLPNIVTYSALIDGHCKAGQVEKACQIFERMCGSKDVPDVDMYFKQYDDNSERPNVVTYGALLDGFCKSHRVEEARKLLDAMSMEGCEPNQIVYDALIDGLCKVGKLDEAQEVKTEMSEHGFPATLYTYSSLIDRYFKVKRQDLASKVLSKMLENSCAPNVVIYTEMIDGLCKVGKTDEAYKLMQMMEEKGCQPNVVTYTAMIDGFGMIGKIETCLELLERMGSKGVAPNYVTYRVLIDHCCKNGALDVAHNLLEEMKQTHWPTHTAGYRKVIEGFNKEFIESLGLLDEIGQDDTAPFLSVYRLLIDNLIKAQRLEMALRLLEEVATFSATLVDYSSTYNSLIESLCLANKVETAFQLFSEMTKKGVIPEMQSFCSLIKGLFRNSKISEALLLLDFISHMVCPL
UniProt Q8VYD9: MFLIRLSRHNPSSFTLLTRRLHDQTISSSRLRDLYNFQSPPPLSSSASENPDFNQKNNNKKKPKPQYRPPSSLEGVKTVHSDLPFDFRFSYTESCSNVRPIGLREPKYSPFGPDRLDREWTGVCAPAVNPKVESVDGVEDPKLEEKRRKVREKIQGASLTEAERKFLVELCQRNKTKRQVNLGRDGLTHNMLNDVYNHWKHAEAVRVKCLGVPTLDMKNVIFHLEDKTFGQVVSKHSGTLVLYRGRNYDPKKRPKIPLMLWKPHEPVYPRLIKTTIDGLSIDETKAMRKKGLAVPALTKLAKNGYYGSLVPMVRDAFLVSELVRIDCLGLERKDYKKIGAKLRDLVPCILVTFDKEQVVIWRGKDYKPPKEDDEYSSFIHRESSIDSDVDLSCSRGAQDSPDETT
UniProt Q9LUW5: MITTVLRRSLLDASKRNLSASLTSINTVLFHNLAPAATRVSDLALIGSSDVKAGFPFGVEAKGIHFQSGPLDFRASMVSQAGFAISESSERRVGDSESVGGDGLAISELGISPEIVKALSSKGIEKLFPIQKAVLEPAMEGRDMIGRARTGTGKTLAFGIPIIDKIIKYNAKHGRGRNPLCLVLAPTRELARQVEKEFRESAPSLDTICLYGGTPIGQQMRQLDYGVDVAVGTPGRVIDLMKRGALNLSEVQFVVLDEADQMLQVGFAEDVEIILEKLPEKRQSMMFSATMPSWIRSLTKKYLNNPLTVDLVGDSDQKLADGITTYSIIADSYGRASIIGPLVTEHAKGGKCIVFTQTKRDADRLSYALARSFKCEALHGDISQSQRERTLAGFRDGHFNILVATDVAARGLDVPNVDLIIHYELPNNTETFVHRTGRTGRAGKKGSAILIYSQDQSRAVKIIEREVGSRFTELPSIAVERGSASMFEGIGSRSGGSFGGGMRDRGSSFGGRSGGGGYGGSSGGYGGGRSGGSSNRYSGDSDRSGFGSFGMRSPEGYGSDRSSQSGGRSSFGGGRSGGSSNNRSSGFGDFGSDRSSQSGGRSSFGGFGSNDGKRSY

Experiments:
[1] = biological target: T1, WTF9-GFP, full-length WHAT’S THIS FACTOR 9 with C-terminal GFP (Arabidopsis thaliana) (UniProt Q9ZUZ6); experiment: co-IP; GFP-tagged bait and 3×Flag-tagged prey transiently co-expressed in Arabidopsis protoplasts; GFP Trap beads overnight at 4 °C; 50 mM Tris-Cl pH 7.5, 150 mM NaCl, 1 mM EDTA, 0.5% NP40 (wash 1% NP40), 1 mM DTT; blots with anti-GFP and anti-Flag
T1 sequence: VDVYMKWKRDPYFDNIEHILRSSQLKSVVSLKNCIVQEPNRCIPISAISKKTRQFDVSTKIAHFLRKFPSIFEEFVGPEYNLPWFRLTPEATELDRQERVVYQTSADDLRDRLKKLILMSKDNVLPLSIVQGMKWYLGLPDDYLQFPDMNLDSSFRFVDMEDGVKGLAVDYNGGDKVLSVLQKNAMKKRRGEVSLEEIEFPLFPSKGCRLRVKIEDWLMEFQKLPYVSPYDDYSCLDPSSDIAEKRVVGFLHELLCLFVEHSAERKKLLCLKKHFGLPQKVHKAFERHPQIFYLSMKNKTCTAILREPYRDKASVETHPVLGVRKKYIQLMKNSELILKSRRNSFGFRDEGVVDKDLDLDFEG

[2] = biological target: MID1-GFP, full-length MID1 with C-terminal GFP (Arabidopsis thaliana) (UniProt Q9LNC0); experiment: as above
[3] = biological target: CLuc-MTSF1 (Arabidopsis thaliana) (UniProt Q9M9X9); experiment: split reporter; firefly luciferase complementation imaging; NLuc and CLuc fusions co-infiltrated into N. benthamiana leaves, 22 °C for 72 h, CCD imaging
[4] = biological target: T2, CLuc-MID1 (Arabidopsis thaliana) (UniProt Q9LNC0); experiment: as above
T2 sequence: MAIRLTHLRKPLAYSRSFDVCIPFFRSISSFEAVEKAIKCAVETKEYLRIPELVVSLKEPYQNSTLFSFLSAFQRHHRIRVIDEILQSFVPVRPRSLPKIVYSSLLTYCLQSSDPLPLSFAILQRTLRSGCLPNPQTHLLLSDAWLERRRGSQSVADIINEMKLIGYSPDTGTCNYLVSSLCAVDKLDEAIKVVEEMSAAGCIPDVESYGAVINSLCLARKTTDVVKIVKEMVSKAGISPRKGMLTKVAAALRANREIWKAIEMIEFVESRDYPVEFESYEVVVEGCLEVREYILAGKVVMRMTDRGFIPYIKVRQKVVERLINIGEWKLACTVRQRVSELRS

Molecule: MCSF1-3×Flag, full-length MITOCHONDRIAL CAF-LIKE SPLICING FACTOR 1 with C-terminal 3×Flag (from UniProt Q8VYD9)
binding [1]: no binding
binding [2]: binds

binding [1]: no binding
binding [2]: binds
Molecule: MID1-3×Flag, full-length MID1 with C-terminal 3×Flag (from UniProt Q9LNC0)

binding [3]: binds
binding [4]: binds
Molecule: MID1-NLuc (from UniProt Q9LNC0)

binding [1]: no binding
binding [2]: binds
Molecule: MTSF1-3×Flag, full-length MITOCHONDRIAL STABILITY FACTOR 1 with C-terminal 3×Flag (from UniProt Q9M9X9)

binding [1]: binds
binding [2]: binds
Molecule: PMH2-3×Flag, full-length PUTATIVE MITOCHONDRIAL RNA HELICASE 2 with C-terminal 3×Flag (from UniProt Q9LUW5)

binding [1]: no binding
Molecule: nMAT1-3×Flag, full-length nMAT1 with C-terminal 3×Flag (Arabidopsis thaliana)

binding [3]: no binding
B1: WTF9-NLuc (protein, UniProt Q9ZUZ6 25-387)
chain: T1 sequence

binding [2]: binds
B2: ODB1-3×Flag, full-length O… DNA-BINDING PROTEIN 1 with C-terminal 3×Flag (protein, UniProt Q9FVV7 38-176)
chain: STETENDVPTSGISRPLAEILKELNKKVPDSVIRTRVEDGCSIKYIPWHIVNRIMNMHAPEWSGEVRSVTYSPDGNTVTVAYRVTLYGTDAEIFRESTGTTSVDDKGYGDAVQKAEAMAFRRACARFGLGLHLYHEDAL

No constants are given. Whether binding was seen depends on the method and setting. Binding seen in cells or lysates may run through a third protein. Binding calls can cover weak binding; strength is not graded here. Where a sequence is shown, tags or fusion partners need not be part of it. Each block holds one molecule with its values, some of them ahead of it.
